B1: DNAJC11 (protein, UniProt Q9NVH1 2-559, looked up)
DnaJ homolog subfamily C …: ATALSEEELDNEDYYSLLNVRREASSEELKAAYRRLCMLYHPDKHRDPELKSQAERLFNLVHQAYEVLSDPQTRAIYDIYGKRGLEMEGWEVVERRRTPAEIREEFERLQREREERRLQQRTNPKGTISVGVDATDLFDRYDEEYEDVSGSSFPQIEINKMHISQSIEAPLTATDTAILSGSLSTQNGNGGGSINFALRRVTSAKGWGELEFGAGDLQGPLFGLKLFRNLTPRCFVTTNCALQFSSRGIRPGLTTVLARNLDKNTVGYLQWRWGIQSAMNTSIVRDTKTSHFTVALQLGIPHSFALISYQHKFQDDDQTRVKGSLKAGFFGTVVEYGAERKISRHSVLGAAVSVGVPQGVSLKVKLNRASQTYFFPIHLTDQLLPSAMFYATVGPLVVYFAMHRLIIKPYLRAQKEKELEKQRESAATDVLQKKQEAESAVRLMQESVRRIIEAEESRMGLIIVNAWYGKFVNDKSRKSEKVKVIDVTVPLQCLVKDSKLILTEASKAGLPGFYDPCVGEEKNLKVLYQFRGVLHQVMVLDSEALRIPKQSHRIDTDG
B2: SAP30BP (protein)
chain: MAGKKNVLSSLAVYAEDSEPESDGEAGIEAVGSAAEEKGGLVSDAYGEDDFSRLGGDEDGYEEEEDENSRQSEDDDSETEKPEADDPKDNTEAEKRDPQELVASFSERVRNMSPDEIKIPPEPPGRCSNHLQDKIQKLYERKIKEGMDMNYIIQRKKEFRNPSIYEKLIQFCAIDELGTNYPKDMFDPHGWSEDSYYEALAKAQKIEMDKLEKAKKERTKIEFVTGTKKGTTTNATSTTTTTASTAVADAQKRKSKWDSAIPVTTIAQPTILTTTATLPAVVTVTTSASGSKTTVISAVGTIVKKAKQ
B3: C6orf11 (protein, UniProt O15213 1-610, looked up)
WD repeat-containing protein …: METAPKPGKDVPPKKDKLQTKRKKPRRYWEEETVPTTAGASPGPPRNKKNRELRPQRPKNAYILKKSRISKKPQVPKKPREWKNPESQRGLSGTQDPFPGPAPVPVEVVQKFCRIDKSRKLPHSKAKTRSRLEVAEAEEEETSIKAARSELLLAEEPGFLEGEDGEDTAKICQADIVEAVDIASAAKHFDLNLRQFGPYRLNYSRTGRHLAFGGRRGHVAALDWVTKKLMCEINVMEAVRDIRFLHSEALLAVAQNRWLHIYDNQGIELHCIRRCDRVTRLEFLPFHFLLATASETGFLTYLDVSVGKIVAALNARAGRLDVMSQNPYNAVIHLGHSNGTVSLWSPAMKEPLAKILCHRGGVRAVAVDSTGTYMATSGLDHQLKIFDLRGTYQPLSTRTLPHGAGHLAFSQRGLLVAGMGDVVNIWAGQGKASPPSLEQPYLTHRLSGPVHGLQFCPFEDVLGVGHTGGITSMLVPGAGEPNFDGLESNPYRSRKQRQEWEVKALLEKVPAELICLDPRALAEVDVISLEQGKKEQIERLGYDPQAKAPFQPKPKQKGRSSTASLVKRKRKVMDEEHRDKVRQSLQQQHHKEAKAKPTGARPSALDRFVR
B4: HNRNPA3 (protein, UniProt P51991 1-378, looked up)
Heterogeneous nuclear …: MEVKPPPGRPQPDSGRRRRRRGEEGHDPKEPEQLRKLFIGGLSFETTDDSLREHFEKWGTLTDCVVMRDPQTKRSRGFGFVTYSCVEEVDAAMCARPHKVDGRVVEPKRAVSREDSVKPGAHLTVKKIFVGGIKEDTEEYNLRDYFEKYGKIETIEVMEDRQSGKKRGFAFVTFDDHDTVDKIVVQKYHTINGHNCEVKKALSKQEMQSAGSQRGRGGGSGNFMGRGGNFGGGGGNFGRGGNFGGRGGYGGGGGGSRGSYGGGDGGYNGFGGDGGNYGGGPGYSSRGGYGGGGPGYGNQGGGYGGGGGYDGYNEGGNFGGGNYGGGGNYNDFGNYSGQQQSNYGPMKGGSFGGRSSGSPYGGGYGSGGGSGGYGSRRF

Test system: BAF complex subunits and histone proteins
Assay: Mass spectrometry proteomics of purified HA-SS18 WT and HA-SS18-SSX1 complexes (Tables 5A-5E)
Parameters: species or system human
Conditions: for Total / Unique: HA-SS18SSX1_CHR_peptides; for Total: total peptides of the identified protein; for Unique: unique peptides of the identified protein
[1] = HA-SS18SSX1_NE_peptides: protein co-purified with HA-SS18-SSX1 BAF complexes from soluble nuclear extract (NE), HEK-293T cells
[2] = HA-SS18WT_NE_peptides: HA-SS18 WT complexes purified from nuclear extract (NE), HEK-293T, label = protein identified (Gene Symbol)
[3] = HA-SS18WT_CHR_peptides: protein identified in HA-SS18 WT BAF complex purification from nuclease-treated solubilized chromatin (CHR), HEK-293T

Row | Molecule | Total | Unique | Total (peptides) [1] | Unique (peptides) [1] | Total (peptides) [2] | Unique (peptides) [2] | Total (total peptides) [3] | Unique (unique peptides) [3]
1 | B1 | 1 | 1 | 2 | 2 | 2 | 2 |  | 
2 | B2 | 1 | 1 |  |  |  |  |  | 
3 | B3 | 1 | 1 |  |  |  |  | 1 | 1
4 | B4 | 1 | 1 |  |  |  |  |  | 
